# PubChem BioAssay AID493014 (National Center for Advancing Translational Sciences (NCATS), 2011)
# Some of the results follow. The main result of the screen is listed elsewhere. These columns were measured beside it and carry no call. The list favours compounds with an active or inconclusive main result. Words in brackets tell the shape of the fitted curve; partial curves, single points and poor fits give uncertain potencies.
# Test: qHTS Assay to Find Inhibitors of Chronic Active B-Cell Receptor Signaling
# Settings: ABC-DLBCL IkBa-CBG/CBR reporter, luminescence ratio (green luciferase fused to IkBa over red control in TMD8 lymphoma cells), 4 h
# Outline: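 Concentration-response series (up to 46 uM) were applied to TMD8 dual-reporter cells for 4 h at 37C with doxycycline. Green/red ratio, after filter-overlap correction, defined %Activity; red signal alone was normalised to basal cells and zero luminescence.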
# [1] = measured here: CBR red luminescence, cell number
# [2] = measured here: IkBa-CBG green luminescence
SMILES,AC50 [1],AC50 [2]
CC(=O)c1sc2nc(C)c3c(c2c1N)CCCC3,"5.62 µM [rising, partial curve, poor fit]",
Cc1c(Nc2nc3ccccc3nc2NS(=O)(=O)c2cccc(Cl)c2)c(=O)n(-c2ccccc2)n1C,"14.6 µM [falling, single point]",
O=C(O)c1ccccc1OC(=O)C12CC3CC(CC(C3)C1)C2,"17.8 µM [rising, single point]",
O=C(CNC(=O)c1cccc(F)c1)N/N=C/c1cccs1,"11.2 µM [rising, partial curve, poor fit]",
Oc1c(C(c2ccccn2)N2CCC(Cc3ccccc3)CC2)cc(Cl)c2cccnc12 (stereo not given),,"5.62 µM [falling, single point]"
CCOC(=O)c1ccc(N/N=C/c2cc(Br)cc([N+](=O)[O-])c2O)cc1,"0.794 µM [falling, full curve]",
CC(=O)c1cccc(NC=C2C(=O)OC3(CCCCC3)OC2=O)c1,"35.5 µM [rising, single point]",
C/C(=N\Nc1ccc(C(=O)O)cc1)c1nc2ccccc2n1C,"0.0517 µM [falling, full curve]",
Cc1ccc(C)c(C(=O)COc2ccc(C)nc2[N+](=O)[O-])c1,"29.1 µM [falling, single point]",
O=C(CC1C(=O)NCCN1Cc1c(F)cccc1Cl)NCCc1ccccn1 (stereo not given),"3.16 µM [rising, partial curve, poor fit]",
CCOC(=O)c1cc(C(=O)OCC)c(=O)[nH]c1N1CCCC1,"35.5 µM [falling, partial curve, poor fit]",
COc1cc(SC)ccc1C(=O)N1CCN(c2ccccc2F)CC1,"7.08 µM [falling, partial curve, poor fit]",
NC1=NC(c2ccccc2Cl)n2c(nc3ccccc32)N1 (stereo not given),"20 µM [falling, single point]",
Cc1ccc(N(CC(=O)NCc2ccccn2)S(=O)(=O)c2ccccc2)cc1C,"11.2 µM [falling, partial curve, poor fit]",
CCN(CC)C(=O)Cn1cc(C(=O)C(=O)Nc2ccc3c(c2)OCCO3)c2ccccc21,"3.98 µM [falling, partial curve, poor fit]",
CC1OC(Oc2ccc3ccc(=O)oc3c2-c2c(O)ccc3cc(Oc4ccc5ccc(=O)oc5c4)c(=O)oc23)C(O)C(O)C1O (stereo not given),"16.4 µM [rising, single point]",
COc1cccc(/C=C2\SC(=S)N(CCCC(=O)Nc3cc(C)on3)C2=O)c1,"3.16 µM [falling, partial curve, poor fit]",
O=C(/C=C/c1ccc([N+](=O)[O-])cc1)OCC(=O)N1CCCCCC1,"0.082 µM [rising, full curve, poor fit]",
CCCCNC(=O)c1onc(CCl)c1C(=O)OC,"7.94 µM [falling, partial curve, poor fit]","35.5 µM [falling, single point]"
CS(=O)(=O)N1Cc2ccccc2CC1C(=O)OCC(=O)NCCc1ccc(S(N)(=O)=O)cc1 (stereo not given),"29.1 µM [rising, single point]",
CC1(C)CC(=O)C2=C(C1)OC(N)=C(C#N)C2c1ccccc1[N+](=O)[O-] (stereo not given),"6.31 µM [rising, single point]",

# In another format: four of the compounds above
SMILES	AC50 [1]	AC50 [2]
O=C(CC1C(=O)NCCN1Cc1c(F)cccc1Cl)NCCc1ccccn1 (stereo not given)	3.16 µM [rising, partial curve, poor fit]	
CCOC(=O)c1cc(C(=O)OCC)c(=O)[nH]c1N1CCCC1	35.5 µM [falling, partial curve, poor fit]	
COc1cc(SC)ccc1C(=O)N1CCN(c2ccccc2F)CC1	7.08 µM [falling, partial curve, poor fit]	
NC1=NC(c2ccccc2Cl)n2c(nc3ccccc32)N1 (stereo not given)	20 µM [falling, single point]	

# (listing goes on)

SMILES,AC50 [1],AC50 [2]
COc1cc(CNn2c(C)n[nH]c2=S)cc(Cl)c1OCc1ccccc1,"35.5 µM [rising, partial curve, poor fit]",
COC(=O)c1cc(COC(=O)c2ccc(OC)c(S(=O)(=O)N3CCCC3)c2)oc1C,"0.164 µM [rising, full curve, poor fit]",
O=C(CSc1nc2sc3c(c2c(=O)n1-c1ccccc1)CCCC3)N/N=C/c1ccc(C(=O)O)cc1,"15.8 µM [rising, partial curve, poor fit]",
COc1ccccc1OCCNC(=O)C(CCSC)NC(=O)COc1ccccc1 (stereo not given),"29.1 µM [falling, single point]",
COc1ccc(-c2[nH]ncc2CNC(C)c2cn(C)nc2C)c(F)c1 (stereo not given),"35.5 µM [falling, single point]",
CC(NCc1ccc(-c2ccccc2)cc1)C(O)c1ccccc1 (stereo not given),,"23.1 µM [falling, single point]"
COc1cccc(OC)c1-c1nnc(-c2cn(C)c3ccccc23)o1,"0.116 µM [rising, full curve, poor fit]",
COC(=O)c1cc(NC(=O)C2COc3ccccc3O2)ccc1Cl (stereo not given),"0.651 µM [rising, full curve, poor fit]",
COC(=O)c1ccc(S(=O)(=O)N2CCC(C(N)=O)CC2)n1C,"3.16 µM [rising, partial curve, poor fit]",
COC(=O)c1cc(NC(=O)C2COc3ccccc3O2)cc(C(=O)OC)c1 (stereo not given),"20.6 µM [rising, partial curve, poor fit]",
Cc1cc(=O)n2[nH]c(-c3ccc(F)cc3)nc2n1,"6.31 µM [falling, partial curve]",
O=C(Cc1ccccc1)N/N=C/c1cc(Br)c(Br)o1,"0.891 µM [rising, full curve]",
Clc1ccc2c(c1)c1cc(Cl)ccc1n2CN1CCOCC1,"23.1 µM [rising, partial curve]",
Clc1nc2ccccc2cc1-c1nnn(-c2ccccc2)n1,"15.8 µM [falling, single point]",
Cn1[nH]c(-c2ccccc2)c(/C=N/O)c1=O,"2 µM [rising, partial curve, poor fit]",
CCOC(=O)CN1C(=O)C(Sc2n[nH]c(-c3cccc(C)c3)n2)CCc2ccccc21 (stereo not given),"11.2 µM [falling, single point]",
CC1CN(c2ccc([N+](=O)[O-])c(NCCOc3ccc(Cl)cc3)c2)CC(C)N1 (stereo not given),"11.2 µM [falling, single point]",
COc1cc(OC)nc(-n2ncc(Br)c(Br)c2=O)n1,"4.61 µM [falling, full curve]","3.26 µM [rising, full curve, poor fit]"
COc1ccccc1Nc1nc(-c2cccc([N+](=O)[O-])c2)cs1,"17.8 µM [falling, single point]",
Nc1cc(N)nc(SCc2nnnn2-c2ccc(Cl)cc2)n1,"20.6 µM [rising, partial curve, poor fit]",
COC(=O)CSc1nc2c(c(=O)n(C)c(=O)n2C)n1CCC(C)C,"20.6 µM [falling, partial curve, poor fit]",

SMILES,AC50 [1],AC50 [2]
Cc1cc(Nc2ccccc2C(=O)O)n(-c2cccc(Cl)c2)n1,"0.355 µM [falling, full curve, poor fit]",
CC1=NNC(=O)C1Oc1ccccc1 (stereo not given),"35.5 µM [rising, single point]",
CC(C)(C)c1cc(C(=O)N2CCc3ccccc3C2)ccn1,"7.94 µM [rising, partial curve]",
O=C/C(=C\Nc1ccc(Cl)cn1)c1nc2ccccc2o1,"2.59 µM [rising, partial curve, poor fit]",
O=[N+]([O-])/C=C/c1cc2ccccc2[nH]1,"35.5 µM [rising, single point]","35.5 µM [falling, partial curve, poor fit]"
c1ccc2c(Nc3nc4c(s3)CCCC4)cccc2c1,"14.1 µM [falling, partial curve, poor fit]",
O=C(Nc1cc(N2CCOCC2)ncn1)Nc1cccc2ccccc12,"11.2 µM [rising, partial curve, poor fit]",
Cc1c(Br)c([N+](=O)[O-])nn1CC(=O)Nc1ccc(Cc2ccncc2)cc1,"18.4 µM [falling, single point]",
COc1cc(C(=O)Nc2nc(N)n(-c3ccccc3)n2)cc(OC)c1OC,"5.8 µM [rising, partial curve, poor fit]",
O=C(N/N=C/c1ccncc1)c1cccc(N/N=C/c2ccncc2)c1,"10 µM [falling, partial curve, poor fit]",
O=C(C1=C[C@H](C2CCCCC2)C[C@H](OCc2ccc(CO)cc2)O1)N1CCN(Cc2ccccc2)CC1,"15.8 µM [falling, single point]",
O=C(NNC(=O)c1cc2cc(Br)ccc2oc1=O)c1ccc(O)cc1O,"15.8 µM [falling, partial curve]",
CC(C#N)OC(=O)c1cccnc1SCC(=O)Nc1ccc2c(c1)OCO2 (stereo not given),"11.6 µM [rising, partial curve, poor fit]",
CCCCn1c(SCC(=O)NCc2ccco2)nc2ccc(N3CCOCC3)cc2c1=O,"7.31 µM [falling, partial curve]",
Cc1cc(C)c(C#N)c(SCc2ccccc2C)n1,"13 µM [rising, partial curve, poor fit]",
O=C(CC(CC(=O)c1ccc(Br)cc1)c1cccnc1)c1ccc(Br)cc1,"0.1 µM [rising, full curve, poor fit]",
COc1ccccc1CNC(=O)c1c(-c2ccccc2)nn(-c2ccccc2)c1C,"7.31 µM [falling, partial curve, poor fit]",
O=C(Cc1ccccc1)N1CCN=C1SCc1cccc([N+](=O)[O-])c1,"8.91 µM [falling, partial curve, poor fit]",
O=C(COc1ccccc1)Nc1ccc(S(=O)(=O)N2CCCCCC2)cc1,"2.91 µM [falling, single point]",
O=C(COC(=O)[C@@H]1CCCN1S(=O)(=O)c1ccccc1F)Nc1ccc(OC(F)F)cc1,"12.6 µM [rising, single point]",
